This passage reports binding results from paper PMC11787511.

By UniProt entry, the sequences of proteins in these tests, tags left out. Where a name states a change or a piece, a line headed by the entry shows the natural chain unless it says otherwise. Chains listed by the source or under a name are the forms on record and can include a tag or linker. Residues count along the entry.
GFP-tagged hPMCA4b-ct120 (PMCA4b deleted of 120 C-terminal amino acids) (P23634, residues 1-1085): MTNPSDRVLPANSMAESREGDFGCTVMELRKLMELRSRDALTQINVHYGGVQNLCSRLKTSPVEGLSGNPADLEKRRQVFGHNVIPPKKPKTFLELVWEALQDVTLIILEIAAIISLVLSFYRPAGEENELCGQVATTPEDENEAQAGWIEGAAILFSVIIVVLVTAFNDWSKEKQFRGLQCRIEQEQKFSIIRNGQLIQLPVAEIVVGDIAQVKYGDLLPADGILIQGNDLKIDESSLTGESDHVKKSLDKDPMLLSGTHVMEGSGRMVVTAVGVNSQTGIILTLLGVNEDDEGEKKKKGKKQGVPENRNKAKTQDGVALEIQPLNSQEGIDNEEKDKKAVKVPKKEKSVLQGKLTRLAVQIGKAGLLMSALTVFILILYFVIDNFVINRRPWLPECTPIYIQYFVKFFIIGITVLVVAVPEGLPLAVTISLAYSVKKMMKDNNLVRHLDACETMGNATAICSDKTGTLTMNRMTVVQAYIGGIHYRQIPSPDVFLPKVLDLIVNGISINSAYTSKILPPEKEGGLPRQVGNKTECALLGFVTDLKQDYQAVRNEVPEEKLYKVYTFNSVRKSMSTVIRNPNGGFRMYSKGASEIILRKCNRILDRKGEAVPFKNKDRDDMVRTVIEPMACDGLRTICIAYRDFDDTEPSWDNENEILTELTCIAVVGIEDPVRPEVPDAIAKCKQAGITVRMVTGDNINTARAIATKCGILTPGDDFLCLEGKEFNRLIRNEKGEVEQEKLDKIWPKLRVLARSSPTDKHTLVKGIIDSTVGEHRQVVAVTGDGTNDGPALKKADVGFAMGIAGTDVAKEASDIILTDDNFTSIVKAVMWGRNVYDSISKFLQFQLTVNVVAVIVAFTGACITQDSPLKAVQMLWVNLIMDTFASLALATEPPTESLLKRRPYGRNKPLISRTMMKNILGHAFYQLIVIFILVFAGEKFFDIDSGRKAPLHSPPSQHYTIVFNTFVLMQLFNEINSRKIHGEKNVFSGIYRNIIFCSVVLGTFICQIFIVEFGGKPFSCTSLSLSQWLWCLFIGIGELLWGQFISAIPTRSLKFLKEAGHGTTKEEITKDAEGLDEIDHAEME
GFP-tagged hPMCA4b WT (plasma membrane calcium-transporting ATPase 4b) (P23634, form named): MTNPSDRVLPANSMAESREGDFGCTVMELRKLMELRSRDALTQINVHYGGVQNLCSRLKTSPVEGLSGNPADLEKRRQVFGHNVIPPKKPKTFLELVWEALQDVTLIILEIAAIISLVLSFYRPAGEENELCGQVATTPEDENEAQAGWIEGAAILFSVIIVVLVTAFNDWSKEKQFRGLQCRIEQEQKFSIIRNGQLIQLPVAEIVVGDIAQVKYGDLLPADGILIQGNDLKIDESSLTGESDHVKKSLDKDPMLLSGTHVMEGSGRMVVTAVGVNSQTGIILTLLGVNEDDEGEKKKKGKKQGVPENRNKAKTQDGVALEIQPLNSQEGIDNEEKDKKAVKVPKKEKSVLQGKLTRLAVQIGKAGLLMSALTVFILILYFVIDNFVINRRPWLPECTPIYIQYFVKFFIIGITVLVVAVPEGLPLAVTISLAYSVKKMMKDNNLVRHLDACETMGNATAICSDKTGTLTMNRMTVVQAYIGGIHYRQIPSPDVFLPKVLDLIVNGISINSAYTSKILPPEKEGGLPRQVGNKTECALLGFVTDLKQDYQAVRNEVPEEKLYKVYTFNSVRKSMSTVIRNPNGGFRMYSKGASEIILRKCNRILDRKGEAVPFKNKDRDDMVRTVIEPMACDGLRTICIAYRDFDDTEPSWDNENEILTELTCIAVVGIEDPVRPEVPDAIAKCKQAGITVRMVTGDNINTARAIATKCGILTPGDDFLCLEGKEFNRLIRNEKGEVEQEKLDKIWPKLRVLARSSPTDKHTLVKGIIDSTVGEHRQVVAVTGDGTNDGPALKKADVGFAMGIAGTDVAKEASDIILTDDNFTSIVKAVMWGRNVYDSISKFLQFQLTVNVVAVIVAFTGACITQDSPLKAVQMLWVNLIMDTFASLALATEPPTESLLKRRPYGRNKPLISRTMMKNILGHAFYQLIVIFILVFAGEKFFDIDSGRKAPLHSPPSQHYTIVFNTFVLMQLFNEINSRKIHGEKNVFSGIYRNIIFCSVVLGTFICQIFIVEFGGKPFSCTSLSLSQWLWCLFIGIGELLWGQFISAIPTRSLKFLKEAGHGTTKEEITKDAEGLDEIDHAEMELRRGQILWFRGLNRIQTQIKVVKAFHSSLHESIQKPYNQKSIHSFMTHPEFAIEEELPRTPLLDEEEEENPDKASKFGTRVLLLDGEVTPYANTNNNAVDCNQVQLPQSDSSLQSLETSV
UniProt O15554: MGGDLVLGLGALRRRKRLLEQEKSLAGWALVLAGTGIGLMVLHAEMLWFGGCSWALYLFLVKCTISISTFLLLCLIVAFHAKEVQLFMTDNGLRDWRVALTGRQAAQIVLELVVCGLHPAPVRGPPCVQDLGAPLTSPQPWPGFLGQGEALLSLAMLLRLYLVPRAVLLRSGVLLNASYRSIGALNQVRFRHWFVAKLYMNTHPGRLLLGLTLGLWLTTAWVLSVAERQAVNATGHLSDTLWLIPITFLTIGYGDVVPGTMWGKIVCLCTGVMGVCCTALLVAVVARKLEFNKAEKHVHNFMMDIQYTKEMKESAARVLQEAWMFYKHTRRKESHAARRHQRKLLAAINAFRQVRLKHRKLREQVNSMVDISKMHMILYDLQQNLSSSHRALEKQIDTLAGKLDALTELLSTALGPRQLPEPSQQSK

No constants are given. Whether binding was seen depends on the method and setting. Binding seen in cells or lysates may run through a third protein. Some binding calls cover weakened binding; strength is not graded here.

For test [1], the target named is PMCA4b, endogenous in red blood cells (human (endogenous in RBC)) (UniProt P23634). Nature of the test: proximity ligation; DuoLink PLA in suspension on fixed RBC (4% paraformaldehyde, 0.05% glutaraldehyde); anti-KCNN4 (rabbit) and anti-panPMCA (mouse) overnight at 4°C.
Test [2] deals with GFP-tagged hPMCA4b-ct120 (PMCA4b deleted of 120 C-terminal amino acids) (human) (UniProt P23634). Nature of the test: co-IP; Pierce co-IP kit; anti-PMCA (5F10) covalently bound to agarose beads; 1 mg of cleared lysate of transfected HEK293T cells, overnight at 4°C; Western blot of the eluate; also with 5 mM vanadate added to the lysate during IP. (In general: In western blotting, separated proteins are transferred to a membrane and probed.)

For test [3], the target named is GFP-tagged hPMCA4b WT (plasma membrane calcium-transporting ATPase 4b) (human) (UniProt P23634). Described as above.
Test [4] shares this target. Nature of the test: proximity ligation; DuoLink PLA on HEK293T cells transfected with pEGFP-hPMCA4b and/or pcDNA3-hKCNN4-HA; fixed with 4% paraformaldehyde, permeabilised with Triton X-100; anti-KCNN4 (rabbit) and anti-PMCA4b (mouse, JA3) overnight at 4°C.

Consider “KCNN4, endogenous in red blood cells (from UniProt O15554 1-427)”, for which the binding result in test [1] is listed as “binds”.

Take hKCNN4-HA (from UniProt O15554 1-427): the binding entry in test [2], in test [3] and in test [4] was “binds” throughout.
